Results from patent US20190153086A1.
These are yes or no findings as the source states them, for the method shown. Some results given as binding are weak or reduced against the parent protein; the word gives no strength.

Sequences of proteins named here, by UniProt entry; tags and fusion partners are left off. A change or cut given only in a name is not applied to a line headed by its entry.
UniProt Q9BQB4: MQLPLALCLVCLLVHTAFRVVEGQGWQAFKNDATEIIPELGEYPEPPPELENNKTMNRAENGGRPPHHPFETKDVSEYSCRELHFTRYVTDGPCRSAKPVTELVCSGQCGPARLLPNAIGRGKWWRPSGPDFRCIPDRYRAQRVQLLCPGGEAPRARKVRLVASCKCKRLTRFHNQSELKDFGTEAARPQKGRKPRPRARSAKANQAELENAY

Biological target: human sclerostin (human) (UniProt Q9BQB4)
Test: competition alpha screen binding assay (antibody titrated against sclerostin-LRP6)

binding: binds
B1: 20C3 (antibody, V domains shown)
VH: QVQLQESGPGLVKPSETLSLTCTVSGGSISSYYWSWIRQPPGKGLEWIGYISDSGSTNYNPSLKSRIPISVDTSKNQFSLKLSSVTAADTAVYYCARWQLAHDAFDIWGQGTMVTVSS
VL: QSALTQPASVSGSPGQSITISCTGTSSDVGGYNYVSWYQQHPGKAPKLMIYEVSYRPSGVSNRFSGSKSGSTASLTISGLQPEDEADYYCSSYAISSTLVFGGGTKMTVL
